Assay results published in PubChem BioAssay AID488837 (National Center for Advancing Translational Sciences (NCATS), 2010).
Out of some 330,000 compounds screened, about 20 (0.006%) were called active. Inconclusive means that the source gave no clear call. Such entries were picked first, then a sample of the others. The call rests on the fitted dose curve; in most records, active means well fitted inhibition curve with a large enough effect; inconclusive means small, poorly fitted or top-dose-only effect, or effect the other way; inactive means flat fitted curve, though single readings scatter. Potencies beside an inconclusive call are fits to weak or partial responses and may not hold up.

The chains behind the UniProt entries cited, without tags or fusion partners. Where a name states a change or a piece, a line headed by the entry shows the natural chain unless it says otherwise.
UniProt O00167: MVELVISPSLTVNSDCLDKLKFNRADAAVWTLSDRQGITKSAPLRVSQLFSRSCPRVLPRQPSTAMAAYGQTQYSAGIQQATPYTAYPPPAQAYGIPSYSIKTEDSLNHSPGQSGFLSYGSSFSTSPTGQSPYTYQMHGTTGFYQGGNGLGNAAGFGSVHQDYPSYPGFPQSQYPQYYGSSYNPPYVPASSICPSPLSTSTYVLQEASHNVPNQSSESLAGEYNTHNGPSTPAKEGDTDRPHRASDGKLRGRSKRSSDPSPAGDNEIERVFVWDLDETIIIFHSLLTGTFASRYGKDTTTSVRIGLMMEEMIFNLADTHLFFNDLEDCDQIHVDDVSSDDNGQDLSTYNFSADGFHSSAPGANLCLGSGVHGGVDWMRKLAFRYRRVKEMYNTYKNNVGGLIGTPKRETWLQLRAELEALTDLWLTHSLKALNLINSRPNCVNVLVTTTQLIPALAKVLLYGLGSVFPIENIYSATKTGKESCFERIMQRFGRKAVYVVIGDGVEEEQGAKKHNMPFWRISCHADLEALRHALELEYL

Molecular target: Protein phosphatase EYA2 (Homo sapiens) (UniProt O00167)
Assay: qHTS Assay for Inhibitors of the Phosphatase Activity of Eya2
Settings: recombinant Eya2, OMFP fluorescence dephosphorylation (OMFP is methylfluorescein phosphate); series mostly up to 76.9 µM
Outline: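 Eya2 (0.2 uM) preincubated 10 min at ambient with compound, then OMFP substrate added at 50 uM; 10 min reaction in 50 mM HEPES pH 7.5, 50 mM NaCl, 5 uM MgCl2, 0.05% BSA, 1 mM DTT. Fluorescence read at Ex 485/Em 525 nm.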
Potency means the concentration at half of the fitted maximal effect.

**Q.** With Cc1ccc(C)c(NC(=O)CCC(=O)NNC(=O)COc2cc(C)ccc2C)c1 as the compound, how does the Potency read?
**A.** The Potency was “inactive”.

**Q.** N=c1c2c(n(Cc3ccc(F)cc3)c3c1CCC3)CCCC2 was tested. Which Potency did it give?
**A.** Its Potency is inconclusive: 89.1 µM [inhibitor, single point].

**Q.** Which Potency does the source give for O=C(Nc1cc(Cl)ccn1)C1(c2ccccc2)CC1(Cl)Cl (centres undefined) here?
**A.** Its Potency is inconclusive: 20 µM [inhibitor, single point].

**Q.** Which Potency does the source give for CC(NC(=S)NNS(=O)(=O)c1ccc(C(C)(C)C)cc1)c1ccccc1 (centres undefined) here?
**A.** Its Potency is inconclusive: 15.8 µM [inhibitor, partial curve, poor fit].

**Q.** CCCS(=O)(=O)C/C(N)=N/OC(=O)c1ccc(Cl)cc1 was tested. Which Potency did it give?
**A.** Its Potency is inconclusive: 100 µM [inhibitor, single point].

**Q.** For CC(=O)Nc1cccc(NC(=O)CSc2nc(C3CC3)nc3ccccc23)c1, which Potency is on record?
**A.** Its Potency is inconclusive: 15.8 µM [inhibitor, single point].

**Q.** How did the Potency turn out when COc1ccc(Nc2nc(N3CCOCC3)nc(N3CCOCC3)n2)c(OC)c1 was run?
**A.** The Potency was “inactive”.

**Q.** Cc1ccc(-c2noc(-c3c(C)noc3C)n2)cc1 was tested. Which Potency did it give?
**A.** The Potency was inconclusive: 39.8 µM [inhibitor, partial curve, poor fit].

**Q.** With O=C(COc1ccc2ccccc2c1)N1CCN(C(=O)c2cccnc2)CC1 as the compound, how does the Potency read?
**A.** Its Potency is inconclusive: 100 µM [activator, partial curve].

**Q.** Which Potency does the source give for Cc1cccn2c(=O)c3cc(C(=O)NC4CCCCC4)c(=N)n(CCN4CCOCC4)c3nc12 here?
**A.** Its Potency is inconclusive: 28.2 µM [inhibitor, partial curve].

**Q.** CC(OC(=O)c1nsc(Cl)c1Cl)C(=O)NC1CCCCC1 (centres undefined) was tested. Which Potency did it give?
**A.** The Potency was inconclusive: 20 µM [inhibitor, single point].

**Q.** For O=c1cc(/C=C/c2ccccc2)oc2c1ccc1ccccc12, which Potency is on record?
**A.** Its Potency is “inactive”.

**Q.** Which Potency does the source give for Cc1nc2ccccc2c(=O)n1NC(=O)c1ccc(C(C)(C)C)cc1 here?
**A.** Its Potency is inconclusive: 100 µM [inhibitor, single point].

**Q.** O=C(Nc1ccccc1)c1cc([N+](=O)[O-])ccc1Cl was tested. Which Potency did it give?
**A.** Its Potency is inconclusive: 35.5 µM [inhibitor, partial curve, poor fit].

**Q.** How did the Potency turn out when CC(=O)Oc1ccc(/C=C(\NC(=O)c2ccco2)C(=O)NCc2ccco2)cc1 was run?
**A.** Its Potency is inconclusive: 22.4 µM [inhibitor, single point].

**Q.** CN1c2ccccc2-c2nc3ccccc3n2C1c1ccncc1 (centres undefined) was tested. Which Potency did it give?
**A.** Its Potency is “inactive”.

**Q.** With O=C1CN(C(=O)c2ccccc2F)C(c2ccccc2)c2cc(Cl)ccc2N1 (centres undefined) as the compound, how does the Potency read?
**A.** Its Potency is inconclusive: 141 µM [inhibitor, partial curve, poor fit].

**Q.** With CCC(C)NCc1ccc(C(=O)OC)o1 (centres undefined) as the compound, how does the Potency read?
**A.** Its Potency is inconclusive: 17.8 µM [inhibitor, single point].

**Q.** For COc1ccc(/C=C/C(=O)c2ccccc2)cc1Cn1nnc2ccccc21, which Potency is on record?
**A.** Its Potency is “inactive”.
